# Laboratory results taken from patent US20030157020A1, “Method of contrast enhanced magnetic resonance imaging and compounds useful therefor” (priority 2000, published 2003).
# Some entries share one result that the patent states for a list of compounds.
# Test: T1 relaxation time of the MR contrast agents
# Format: physicochemical
compound,measurement,value
[2H]C([2H])(O)C1(C([2H])([2H])O)C([2H])([2H])OC1([2H])[2H] [compound 17],T1-values in water,> 60 s
